In paper PMC4676809:
No constants are given. Whether binding was seen depends on the method and setting. Binding can be weak; no strength is given.

Tests used:
Assay in all cases: two-hybrid; Gal4 DB baits in S. cerevisiae Y8930 and Gal4 AD preys in Y8800, pairwise mated in a crosswise matrix; growth on YNB -LTH but not on -LH with cycloheximide scored as positive; autoactivators removed
[1] = target: PaGG1, Picea abies A-type Gγ-subunit (Picea abies) (UniProt X2D846)
[2] = target: PaGG3, Picea abies C-type Gγ-subunit (Picea abies) (UniProt X2D807)
[3] = target: PaGG4, Picea abies C-type Gγ-subunit (Picea abies) (UniProt X2D8C5)
[4] = target: PaGG2, Picea abies conifer-specific short Gγ-subunit (Picea abies) (UniProt X2D7V7)
[5] = target: PaHGB1, Picea abies heterotrimeric G-protein Gβ-subunit (Picea abies) (UniProt X2D873)

binding [1] | binding [2] | binding [3] | binding [4] | binding [5] | Substance
binds | no binding | no binding |  |  | PaGG2, Picea abies conifer-specific short Gγ-subunit (from UniProt X2D7V7)
binds | binds | binds | binds | binds | PaGPA1, Picea abies heterotrimeric G-protein Gα-subunit (from UniProt A0A0N7B0N5)
binds | binds | binds | no binding |  | PaHGB1, Picea abies heterotrimeric G-protein Gβ-subunit (from UniProt X2D873)
